{
  "source": "paper PMC5402663",
  "binders": {"B1": {"name": "Decoy receptor 3 (DcR3)/TNFRSF6B, human, transgene in mice (receptor, UniProt O95407 30-300)", "chain": "VAETPTYPWRDAETGERLVCAQCPPGTFVQRPCRRDSPTTCGPCPPRHYTQFWNYLERCRYCNVLCGEREEEARACHATHNRACRCRTGFFAHAGFCLEHASCPPGAGVIAPGTPSQNTQCQPCPPGTFSASSSSSEQCQPHRNCTALGLALNVPGSSSHDTLCTSCTGFPLSTRVPGAEECERAVIDFVAFQDISIKRLQRLLQALEAPEGWGPTPRAGRAALQLKLRRRLTELLGAQDGALLVRLLQALRVARMPGLERSVRERFLPVH"}},
  "key": {"[1]": {"target": "T1, glypican-1 (mouse) (mouse) (UniProt Q9QZF2)", "T1 sequence": "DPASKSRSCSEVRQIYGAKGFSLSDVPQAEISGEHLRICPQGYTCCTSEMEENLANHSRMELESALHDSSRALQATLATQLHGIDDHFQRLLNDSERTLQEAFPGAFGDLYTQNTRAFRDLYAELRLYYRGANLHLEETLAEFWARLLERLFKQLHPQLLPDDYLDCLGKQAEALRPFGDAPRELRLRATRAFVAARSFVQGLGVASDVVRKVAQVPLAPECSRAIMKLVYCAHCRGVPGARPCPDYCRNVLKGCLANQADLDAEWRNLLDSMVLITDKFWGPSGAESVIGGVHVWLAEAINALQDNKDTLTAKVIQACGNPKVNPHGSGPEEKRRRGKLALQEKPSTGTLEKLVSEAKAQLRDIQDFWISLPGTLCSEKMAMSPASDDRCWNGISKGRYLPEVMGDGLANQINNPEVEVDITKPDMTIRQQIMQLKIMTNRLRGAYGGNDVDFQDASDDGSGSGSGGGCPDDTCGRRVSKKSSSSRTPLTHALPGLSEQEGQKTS", "experiment": "co-IP; cortex lysates of 12-month-old mice in 1% CHAPS, 50 mM HEPES, 10 mM EDTA, 150 mM NaCl, pH 7.4; anti-DcR3, anti-syndecan-1, anti-glypican-1 or anti-Aβ (6E10) at 4 °C overnight, protein G beads, Western blot"}, "[2]": {"target": "T2, syndecan-1 (mouse) (mouse) (UniProt P18828)", "T2 sequence": "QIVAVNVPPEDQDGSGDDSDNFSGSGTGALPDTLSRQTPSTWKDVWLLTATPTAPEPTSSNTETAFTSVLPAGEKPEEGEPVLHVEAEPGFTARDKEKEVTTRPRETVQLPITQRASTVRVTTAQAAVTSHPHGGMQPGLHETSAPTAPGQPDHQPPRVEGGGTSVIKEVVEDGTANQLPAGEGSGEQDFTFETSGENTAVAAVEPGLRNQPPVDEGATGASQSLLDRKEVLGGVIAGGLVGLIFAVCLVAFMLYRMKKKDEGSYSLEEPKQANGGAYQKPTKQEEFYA", "experiment": "co-IP; cortex lysates of 12-month-old mice in 1% CHAPS, 50 mM HEPES, 10 mM EDTA, 150 mM NaCl, pH 7.4; anti-DcR3, anti-syndecan-1, anti-glypican-1 or anti-Aβ (6E10) at 4 °C overnight, protein G beads, Western blot"}},
  "note": "Results are given in words; binding and its absence hold for the method and conditions named. In cells and extracts the contact can be indirect. Some results given as binding are weak or reduced against the parent protein; the word gives no strength.",
  "data": [
    {"binder": "B1", "values": [
      {"measurement": "binding", "setting": "[1]", "value": "binds"},
      {"measurement": "binding", "setting": "[2]", "value": "binds"}
    ]}
  ]
}
